Measurements from patent US9745328B2, “Flap modulators” (JANSSEN PHARMACEUTICA NV, priority 2013, dated 2017).
Counter-ions that a name gives are not always drawn.

Protein sequences, listed by entry. Tags and fused reporters are not part of them. Lines headed by an entry give the natural chain unless they say otherwise; changes in a name come on top.
UniProt P20292: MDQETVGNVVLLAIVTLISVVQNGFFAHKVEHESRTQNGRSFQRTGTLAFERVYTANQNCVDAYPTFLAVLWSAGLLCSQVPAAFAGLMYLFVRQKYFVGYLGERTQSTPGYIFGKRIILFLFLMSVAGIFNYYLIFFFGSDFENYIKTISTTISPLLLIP

Target: human FLAP (Homo sapiens (Human), UniProt P20292)
Experiment: FLAP binding assay (HTRF format)
Conditions: Table 6 (additional runs), human FLAP wild type
Method: The ability of the compounds of the present invention to treat a FLAP-mediated disease and/or disorder, or associated symptoms or complications thereof, was determined using the following procedures. Binding assay data represent the average value obtained from two different assay plates, with samples run in duplicate on each plate. Human whole blood assay data represent a single replicate on an assay plate using whole blood from at least one healthy donor.
Data are expressed as a HTRF ratio.

Ki: 636 nM
Compound: CC(=O)NC1CCN(S(=O)(=O)Cc2ccccc2-c2ccc(-c3cnc(N)cn3)c(F)c2)CC1 [Example 233, N-[1-({[4′-(5-Aminopyrazin-2-yl)-3′-fluorobiphenyl-2-yl]methyl}sulfonyl)piperidin-4-yl]acetamide formate salt]
